Test: general procedure: Fmoc solid-phase peptide synthesis; Rink Amide resin (Nova, 0.3 mmol/g, PS/1% DVB, 100-200 mesh); HBTU/N-methyl morpholine in DMF
Settings: late stage modification step

## (S)-alpha-(acetylamino)-1,3-dihydro-3-hydroxy-1-oxo-5-isobenzofuranpropanamido-glutamate-glutamate-isoleucine-glutamate-amine
  step yield: 64%
